One data set deals with BSA (UniProt P02769). Description: strand a displacement with toehold-aided fluorescence amplification. The conditions noted are these: 100 ng/mL BSA, slight fluorescence change only; 20 mM Tris-HCl, 100 mM NaCl, 10 mM KCl, 10 mM MgCl2, pH 7.5, 37 °C, 30 min; commercial protein.
The test system of a further data set is CD63. The data set is described as above. Conditions: 100 ng/mL CD63, slight fluorescence change only; 20 mM Tris-HCl, 100 mM NaCl, 10 mM KCl, 10 mM MgCl2, pH 7.5, 37 °C, 30 min; commercial protein.

Chains of the proteins cited; added tags and fusions are not shown. Residues count along the entry.
UniProt P02769, 25-607: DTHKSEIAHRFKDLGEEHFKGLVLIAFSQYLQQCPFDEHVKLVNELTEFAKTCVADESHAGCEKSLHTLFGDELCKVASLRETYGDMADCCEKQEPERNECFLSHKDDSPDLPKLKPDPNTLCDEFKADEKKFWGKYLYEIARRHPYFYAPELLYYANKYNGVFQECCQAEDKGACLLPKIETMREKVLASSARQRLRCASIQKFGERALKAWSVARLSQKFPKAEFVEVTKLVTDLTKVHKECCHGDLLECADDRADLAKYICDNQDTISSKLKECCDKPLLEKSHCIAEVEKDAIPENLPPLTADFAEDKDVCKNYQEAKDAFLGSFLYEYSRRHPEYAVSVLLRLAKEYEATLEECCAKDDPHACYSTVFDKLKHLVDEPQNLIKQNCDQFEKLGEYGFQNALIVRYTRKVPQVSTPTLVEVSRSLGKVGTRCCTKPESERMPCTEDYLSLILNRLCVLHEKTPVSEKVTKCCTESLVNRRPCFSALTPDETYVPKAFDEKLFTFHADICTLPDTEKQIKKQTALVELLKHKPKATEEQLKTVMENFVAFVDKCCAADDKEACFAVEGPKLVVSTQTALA

A negative result means that nothing was seen under these conditions. For some assays here: The exact form of at least one protein or probe is not confirmed.

With “CACTACAGAGGTTGCGTCTGTCCCACGTTGTCATGGGGGGTTGGCCTG / AGACGCAACCTCTGT [EpCAM aptamer / strand a duplex]”, the binding result with BSA and in the data set on CD63 was “no binding” in each case.

The values are drawn from PMC9079946.
